PubChem BioAssay AID686937 | Drosophila RNAi Screening Center, 2013

Aim: 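Genes in the fly needed for secretion of protein constitutively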 (primary screen)
Cell system: Drosophila S2 cells expressing secreted horseradish peroxidase
Reagent: long dsRNA against Drosophila genes
Timing: about 5.5 days (5 days dsRNA, then 12 h reporter induction)
Challenge: reporter expression induced after 5 days of dsRNA, read 12 h later; inducer not stated
Measurement: 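Chemiluminescent measurement of peroxidase in the medium 12 h after reporter induction, following 5 days of dsRNA, given as a z-score per plate; higher means more secretion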
Reading the numbers: z-score: higher = more reporter secreted into medium
In all, the deposit lists about 23,000 reagents; shown is an unselected part of those with a known target gene and a result. 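Reduced-secretion tags in replicate 1 do not always agree with the z-scores; no criterion for assigning the tags was given.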 Not stated in the record: the amount of reagent.

Target gene,dsRNA,"z-score, replicate 1","z-score, replicate 2","z-score, replicate 3","z-score, replicate 4","phenotype, replicate 1"
CG13243,DRSC01920,-0.98,-0.78,,,
VhaAC45RP,DRSC15423,-1.59,-0.33,,,
CG6833,DRSC10721,0.34,0.27,,,
TotA,DRSC13448,0.17,-0.17,,,
Dhod,DRSC16647,0.34,0.28,,,
Slik,DRSC04471,-0.51,-0.57,,,
Dlish,DRSC06016,0.45,0.5,,,
Opa1,DRSC07191,0.43,0.51,,,
CG14797,DRSC17955,0.26,0.24,,,
PpD6,DRSC00774,0.03,0.2,,,
byn,DRSC11332,0.34,0.16,,,
cos,DRSC07598,0.43,0.11,,,
CanA-14F,DRSC20211,-3.07,-2.93,,,reduced secretion
COX7C,DRSC06831,-0.12,0.02,-0.07,-0.14,
TwdlP,DRSC14734,0.53,0.63,,,
CG7369,DRSC11822,-0.44,0.04,0.26,-0.25,
Dscam4,DRSC08911,0.23,0.08,,,
Dscam4,DRSC08913,0.66,0.46,,,
Dscam4,DRSC10031,0.11,0.32,,,
Dscam4,DRSC10329,-0.76,0.01,,,
Dscam4,DRSC10765,0.43,0.56,,,
CG32260,DRSC08084,0.16,0.17,,,
CG14053,DRSC17908,0.24,0.06,,,
CG14739,DRSC14959,0.46,0.59,,,
IntS10,DRSC08173,0.82,0.4,,,
CG1503,DRSC20512,0.3,0.26,,,
CG32214,DRSC09613,-0.45,0.47,,,
140up,DRSC12634,0.59,0.44,,,
Tengl4,DRSC15620,0.16,0.39,,,
CG3703,DRSC18172,0.51,0.47,,,
CG3703,DRSC18173,0.31,0.46,,,
CG3703,DRSC18643,0.27,0.38,,,
Idgf1,DRSC03349,0.29,0.31,,,
